Assay results as given in PMC12670160, “A drug-repurposing screen of FDA- and EMA-approved drugs identifies two NF-κB inhibitors active against eumycetoma” (Journal of Antimicrobial Chemotherapy, 2025).
Where a name gives a salt, the structure may show the parent alone. The whole screen tested about 5,300 compounds, of which about 130 (2.5%) showed an effect of 50% or more. This is one part of the list. Bridge positions count the residues as written; N and C are the ends. Square brackets hold non-standard residues; d marks the D form. Peptide text beside a SMILES is read from it. ξ: configuration not given here. ξThr(3R) = C[C@@H](O)C(N)C(=O)O; Orn = NCCC[C@H](N)C(=O)O; Mpa = O=C(O)CCS

tested on: M. mycetomatis strain mm55; conditions: primary screen, metabolic activity vs growth control; 96 h, 2 µM; inhibitor

| SMILES | % viability [%] |
| --- | --- |
| Cc1nc(Nc2ncc(C(=O)Nc3c(C)cccc3Cl)s2)cc(N2CCN(CCO)CC2)n1 [ONC0004707, dasatinib] | 111.5 |
| CCN(CCO)CCCC(C)Nc1ccnc2cc(Cl)ccc12 (stereo not shown) [ONC0002421, hydroxychloroquine sulfate] | 65.71 |
| COc1cc(N2CCC(N3CCN(C)CC3)CC2)ccc1Nc1ncnc(Nc2ccccc2S(=O)(=O)C(C)C)n1 [ONC0000148, asp3026] | 91.78 |
| NC(=O)c1cn([C@@H]2O[C@H](CO)[C@@H](O)[C@H]2O)c2ncnc(N)c2c1=O [ONC0002494, api1] | 68.56 |
| CON [ONC0003661, methoxyamine] | 87.65 |
| O=C(OCC(COC(=O)c1cccnc1)(COC(=O)c1cccnc1)COC(=O)c1cccnc1)c1cccnc1 [ONC0003812, niceritrol] | 67.71 |
| CC(=O)N[C@H]1[C@@H](OC(C)C)O[C@H](COC(C)=O)[C@@H](OC(C)=O)[C@@H]1OC(C)=O [ONC0003039, c34] | 122 |
| Oc1cc2c(cc1O)[C@@H]1c3ccc(O)c(O)c3OC[C@]1(O)C2 [ONC0005264, hematoxylin hydroxybrazilin] | 118 |
| CC(C(=O)O)c1ccc2c(c1)CC(=O)c1ccccc1S2 (stereo not shown) [ONC0005237, zaltoprofen] | 110.5 |
| CN(C)c1ccc(C(=C2C=CC(=[N+](C)C)C=C2)c2ccc(N(C)C)cc2)cc1 [ONC0000415, gentian violet] | 35.99 |
| CCn1cnc2c(Nc3cccc(Cl)c3)nc(N[C@@H]3CCCC[C@@H]3N)nc21 [ONC0001362, cgp74514] | 81.23 |
| O=c1ccn([C@@H]2O[C@H](COP(=O)(O)OP(=O)(O)OP(=O)(O)O)[C@@H](O)[C@H]2O)c(=O)[nH]1 [ONC0002228, uridine triphosphate] | 66.98 |
| Cc1nc(-c2ccc(OCC(C)C)c(C#N)c2)sc1C(=O)O [ONC0003903, febuxostat] | 64.27 |
| Clc1ccc(N2CCN(Cc3c[nH]c4ncccc34)CC2)cc1 [ONC0001640, l745870] | 61.2 |
| C[C@@H](O)[C@H]1C(=O)N2C(C(=O)[O-])=C(SC3Cn4cnc[n+]4C3)[C@H](C)[C@H]12 (stereo partly shown) [ONC0000906, biapenem] | 70.93 |
| CN1CCN(c2ccc3ccccc3n2)CC1 [ONC0001376, nmethylquipazine] | 74.77 |
| CN(C)CCn1cc(S(=O)(=O)c2cccc(F)c2)c2cccnc21 [ONC0002868, way 208466 dihydrochloride] | 131.1 |
| CCCCc1ccc(O)cc1O [ONC0003242, rucinol] | 107.9 |
| Nc1sc2c(c1C(=O)c1ccc(Cl)cc1)CCCC2 [ONC0003840, t62] | 57.88 |
| c1ccc2nc(C3=NCCN3)ccc2c1 [ONC0001460, bu224] | 71.14 |
| Cc1ccc2c(=O)c3cccc(CC(=O)O)c3oc2c1C [ONC0004842, dmxaa vadimezan] | 122.8 |

| SMILES | % viability [%] |
| --- | --- |
| O=C(O)CCC/C=C\C[C@@H]1[C@@H](/C=C/[C@@H](O)COc2cccc(Cl)c2)[C@H](O)C[C@@H]1O [ONC0003627, cloprostenol] | 51.71 |
| N[C@@]1(C(=O)O)CS(=O)(=O)[C@H]2[C@H](C(=O)O)[C@H]21 [ONC0004427, ly2140023 ly404039] | 119.9 |
| NCCCNCCSP(=O)(O)O [ONC0002855, amifostine] | 103.3 |
| COc1cc(CC2NCCc3cc(O)c(O)cc32)cc(OC)c1OC (stereo not shown) [ONC0002165, trimethoquinol] | 66.75 |
| O=C(Nc1cccc2cccnc12)c1ccc(N2C(=O)[C@@H]3[C@H](C2=O)[C@@H]2C=C[C@H]3C2)cc1.O=C(Nc1cccc2cccnc12)c1ccc(N2C(=O)[C@@H]3[C@H](C2=O)[C@@H]2C=C[C@H]3C2)cc1 [ONC0001552, endoiwr1] | 105.7 |
| CCOC(=O)NNc1nncc2ccccc12 [ONC0000677, todralazine hydrochloride] | 89.33 |
| COc1cc(/C=C/c2ccc(OC)cc2OC)cc(OC)c1 [ONC0001445, tms] | 52.75 |
| CCCCN1CCCCC1C(=O)Nc1c(C)cccc1C (stereo not shown) [ONC0002334, bupivacaine hydrochloride] | 105.3 |
| CO/N=C1\C[C@]2(C[C@@H]3C[C@@H](C/C=C(\C)C[C@@H](C)/C=C/C=C4\CO[C@@H]5[C@H](O)C(C)=C[C@@H](C(=O)O3)[C@]45O)O2)O[C@H](/C(C)=C/C(C)C)[C@H]1C [ONC0003943, moxidectin] | 74.87 |
| Cc1oc2nc3c(c(NC(=O)CN4CCCC4=O)c2c1C)CCCC3 [ONC0001218, coluracetam] | 81.81 |
| CC1(C)CCC(C)(C)c2cc(C#Cc3ccc(C(=O)O)cc3)ccc21 [ONC0001455, ec23] | 116.5 |
| O=C1COc2c(CCNCCN(C(=O)CCNCCc3ccc(Cl)c(Cl)c3)C3CCCCC3)ccc(O)c2N1 [ONC0000934, az505 ditrifluoroacetate] | 90.39 |
| O=C(/C=C/c1cccnc1)c1ccncc1 [ONC0001196, 3po] | 95.93 |
| O=C(CN1CCNCC1)NC1CCCCC1 [ONC0003703, esaprazole] | 104.4 |
| COC1CCN(C(=O)c2cc(Cc3n[nH]c(=O)c4ccccc34)ccc2F)CC1 [ONC0005270, azd2461] | 114.9 |
| c1cncc(CN2CCC(n3ncc4c(N5CCOCC5)nc(-c5ccc6[nH]ccc6c5)nc43)CC2)c1 [ONC0005057, way600] | 76.67 |
| CC(=O)N[C@@H](C=O)[C@@H](O)[C@H](O)[C@H](O)CO [ONC0003499, nacetyldglucosamine] | 64.58 |
| Clc1cccc(Cl)c1CSc1nnc(-c2cnccn2)s1 [ONC0003064, yoda1] | 80.91 |
| Cc1[nH]c2ccccc2c1CCNCc1ccc(/C=C/C(=O)NO)cc1 [ONC0001846, panobinostat] | 73.7 |
| Cc1cc(C)c(S(=O)(=O)n2cc(C)cc2C)c(C)c1 [ONC0002489, hjc0350] | 63.72 |
| Nc1ncnc2c1ncn2C1CCCO1 (stereo not shown) [ONC0001543, sq22536] | 113.4 |

| SMILES | % viability [%] |
| --- | --- |
| O=S1(=O)c2cccc3cccc(c23)N1CCCN1CCN(c2ccc(F)cc2)CC1 [ONC0002655, fananserin] | 69.9 |
| OC[C@H]1O[C@H](O[C@H]2[C@H](O)[C@@H](O)[C@H](O)O[C@@H]2CO)[C@H](O)[C@@H](O)[C@@H]1O [ONC0000327, dmaltose] | 54.64 |
| O=c1[nH]c(=O)c2ccccc2o1 [ONC0003927, carsalam] | 73.55 |
| Nc1ccc(S(=O)(=O)Nc2ccccn2)cc1 [ONC0000610, sulfapyridine] | 108.7 |
| CCN1CCC(n2cc(CNc3cc(Cl)c4ncc(C#N)c(Nc5ccc(F)c(Cl)c5)c4c3)nn2)CC1 [ONC0002075, cot inhibitor2] | 82.04 |
| O=C(O)[C@H]1O[C@@H](Oc2cc3oc(-c4ccccc4)cc(=O)c3c(O)c2O)[C@H](O)[C@@H](O)[C@@H]1O [ONC0004947, baicalin] | 61.05 |
| Cn1cc(-c2ccncc2)c(-c2ccc(OCc3ccc4ccccc4n3)cc2)n1 [ONC0005056, pf2545920] | 63.74 |
| C[C@H](Nc1ncnc2[nH]cnc12)c1cc2ccc(F)cc2nc1-c1ccccn1 [ONC0001000, amg319] | 84.25 |
| CN(C)CCCN1c2ccccc2Sc2ccc(Cl)cc21 [ONC0000296, chlorpromazine hydrochloride] | 104.4 |
| COc1ccccc1N1CCN(CCCCN2C(=O)CCC2=O)CC1 [ONC0002629, mm77] | 66.25 |
| CCCCCCCCCCCCCCCCOP(=O)(O)OCC[N+](C)(C)C [ONC0004041, miltefosine 5mm] | 72.45 |
| CC(=O)[C@]1(N)Cc2c(O)c3c(c(O)c2[C@@H](O[C@H]2C[C@H](O)[C@H](O)CO2)C1)C(=O)c1ccccc1C3=O [ONC0003637, amrubicin] | 78.63 |
| NCCOB(c1ccccc1)c1ccccc1 [ONC0000031, 2apb] | 77.67 |
| O=C(O)COc1ccc(/C=C2\SC(=O)NC2=O)cc1 [ONC0002539, tcs3035] | 56 |
| O=C(CCCN1CCC2(CC1)C(=O)N(Cc1cccc(F)c1)CN2c1ccccc1)c1ccc(F)cc1 [ONC0004290, 3fluorobenzylspiperone] | 71.07 |
| O=c1ccc2ccccc2o1 [ONC0000316, coumarin] | 70.83 |
| Cc1nc(-c2cccnc2)sc1C(=O)Nc1ccccc1-c1cn2c(CN3CCOCC3)csc2n1 [ONC0004386, srt2104 gsk2245840] | 108.4 |
| CCOc1ccc(C[C@H]2NC(=O)CCSSC[C@@H](C(=O)N3CCC[C@H]3C(=O)N[C@@H](CCCN)C(=O)NCC(N)=O)NC(=O)[C@H](CC(N)=O)NC(=O)[C@H]([C@@H](C)O)NC(=O)[C@H]([C@@H](C)CC)NC2=O)cc1 [ONC0002189, atosiban] ([Mpa][dY](Et)I[ξThr(3R)]NCP[Orn]G-NH2; disulfide 1-6) | 60.69 |
| O=C(O)c1c(Sc2ccccc2)c2cc(Cl)ccc2n1Cc1ccc(Cl)cc1 [ONC0000171, ntzdpa] | 101.5 |

Two of the compounds above, bar-delimited:
SMILES | % viability [%]
O=c1[nH]c(=O)c2ccccc2o1 [ONC0003927, carsalam] | 73.55
Nc1ccc(S(=O)(=O)Nc2ccccn2)cc1 [ONC0000610, sulfapyridine] | 108.7
